# No constants are given. Whether binding was seen depends on the method and setting. In cells and extracts the contact can be indirect. Some results given as binding are weak or reduced against the parent protein; the word gives no strength.
# Chains of the proteins cited; added tags and fusions are not shown.
# UniProt Q16665: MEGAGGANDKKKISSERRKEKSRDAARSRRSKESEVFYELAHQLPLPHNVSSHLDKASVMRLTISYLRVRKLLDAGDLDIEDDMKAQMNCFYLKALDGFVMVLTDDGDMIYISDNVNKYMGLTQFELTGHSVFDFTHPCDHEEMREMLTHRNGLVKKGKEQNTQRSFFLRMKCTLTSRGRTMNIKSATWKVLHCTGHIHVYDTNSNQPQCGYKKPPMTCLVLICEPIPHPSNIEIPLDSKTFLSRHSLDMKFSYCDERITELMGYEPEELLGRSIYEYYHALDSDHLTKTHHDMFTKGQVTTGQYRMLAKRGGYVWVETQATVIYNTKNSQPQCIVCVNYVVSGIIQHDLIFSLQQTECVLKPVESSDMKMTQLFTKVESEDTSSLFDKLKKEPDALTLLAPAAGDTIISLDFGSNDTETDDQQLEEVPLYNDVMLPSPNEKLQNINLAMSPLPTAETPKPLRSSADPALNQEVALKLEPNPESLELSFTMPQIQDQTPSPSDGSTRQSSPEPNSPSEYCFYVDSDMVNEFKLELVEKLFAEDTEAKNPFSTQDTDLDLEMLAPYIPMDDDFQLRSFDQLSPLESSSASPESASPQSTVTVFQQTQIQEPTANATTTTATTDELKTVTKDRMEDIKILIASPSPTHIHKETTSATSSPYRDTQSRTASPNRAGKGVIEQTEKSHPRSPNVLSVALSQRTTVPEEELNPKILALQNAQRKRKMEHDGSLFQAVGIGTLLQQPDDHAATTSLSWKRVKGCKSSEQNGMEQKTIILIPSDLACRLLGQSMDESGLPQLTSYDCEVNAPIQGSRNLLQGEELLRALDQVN
# UniProt Q15788: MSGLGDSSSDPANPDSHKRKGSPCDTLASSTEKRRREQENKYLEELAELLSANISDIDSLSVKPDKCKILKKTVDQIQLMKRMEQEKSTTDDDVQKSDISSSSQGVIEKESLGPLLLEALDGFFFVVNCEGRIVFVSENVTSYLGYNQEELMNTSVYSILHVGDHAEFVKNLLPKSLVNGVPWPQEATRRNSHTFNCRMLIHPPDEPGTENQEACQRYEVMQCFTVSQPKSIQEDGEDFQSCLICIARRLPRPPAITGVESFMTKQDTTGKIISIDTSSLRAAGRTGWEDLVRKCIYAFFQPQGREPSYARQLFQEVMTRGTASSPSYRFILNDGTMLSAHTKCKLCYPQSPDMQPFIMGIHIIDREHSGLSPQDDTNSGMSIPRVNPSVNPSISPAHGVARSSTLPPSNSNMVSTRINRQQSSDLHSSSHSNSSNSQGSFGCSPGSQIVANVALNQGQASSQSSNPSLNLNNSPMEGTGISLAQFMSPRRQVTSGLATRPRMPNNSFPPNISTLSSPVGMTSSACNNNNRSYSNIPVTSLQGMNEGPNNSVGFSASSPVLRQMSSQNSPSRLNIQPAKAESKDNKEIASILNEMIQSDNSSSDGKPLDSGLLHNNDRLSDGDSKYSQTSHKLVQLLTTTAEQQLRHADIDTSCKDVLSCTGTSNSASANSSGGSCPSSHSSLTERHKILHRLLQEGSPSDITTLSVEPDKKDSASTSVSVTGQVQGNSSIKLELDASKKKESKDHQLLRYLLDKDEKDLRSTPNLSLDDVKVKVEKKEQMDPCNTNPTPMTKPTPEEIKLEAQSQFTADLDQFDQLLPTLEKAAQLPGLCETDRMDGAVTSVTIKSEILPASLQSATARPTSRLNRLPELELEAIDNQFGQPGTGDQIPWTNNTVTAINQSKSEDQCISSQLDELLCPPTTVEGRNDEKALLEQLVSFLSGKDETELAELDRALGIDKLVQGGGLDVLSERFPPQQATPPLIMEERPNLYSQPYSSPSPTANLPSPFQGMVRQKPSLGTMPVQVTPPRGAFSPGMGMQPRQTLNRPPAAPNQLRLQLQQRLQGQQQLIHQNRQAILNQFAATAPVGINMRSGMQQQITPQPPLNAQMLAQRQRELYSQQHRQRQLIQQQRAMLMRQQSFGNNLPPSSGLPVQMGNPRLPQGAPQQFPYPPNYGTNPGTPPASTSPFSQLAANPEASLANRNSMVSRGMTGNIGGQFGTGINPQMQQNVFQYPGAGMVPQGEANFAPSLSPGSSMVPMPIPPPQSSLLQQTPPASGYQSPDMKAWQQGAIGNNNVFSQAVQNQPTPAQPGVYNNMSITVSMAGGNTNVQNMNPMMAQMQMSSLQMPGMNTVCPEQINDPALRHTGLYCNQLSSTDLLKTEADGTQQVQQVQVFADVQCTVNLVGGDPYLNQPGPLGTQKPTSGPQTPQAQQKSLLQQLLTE
# Molecular target: HIF1α (human (endogenous in MDA-MB-231)) (UniProt Q16665)
# Assay: co-IP; MDA-MB-231 cell lysate; IP with NCOA1 antibody, HIF1α antibody or non-immune IgG as negative control; Western blot with NCOA1 antibody
substance,measurement,value
Nuclear receptor coactivator 1 (NCOA1) (from UniProt Q15788 1-1441),binding,binds

# From paper PMC4695159
